## Screening data

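Wild-type E. coli carrying GFP, grown in the same well as an h34 humanized-ribosome RFP strain; GFP fluorescence for growth, read after 24 h.
The value is the change in activity at the highest dose tested; more negative means stronger inhibition.
Active requires GFP to fall at least twice as much as RFP with growth loss below a set limit; inconclusive means no clear call; everything else is inactive.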

These entries are mostly ones the record files as inconclusive; other results of the assay are not listed here.

Compound: O=C(Nc1ccc2c(c1)OCO2)c1ccc([N+](=O)[O-])cc1[N+](=O)[O-]
tested on / at: at 50 µM (top of the series)
activity change: 21.61
outcome: inconclusive

Compound: CN1CCC(c2c[nH]c3ccccc23)C1 (centres unmarked)
tested on / at: at 50 µM (top of the series)
activity change: 29.43
outcome: inconclusive

Compound: COc1ccc(OC)c(C(=O)COC(=O)c2ccc([N+](=O)[O-])o2)c1
tested on / at: at 50 µM (top of the series)
activity change: 15.7
outcome: inconclusive

Compound: Cc1ccc(CSCC(=O)N(C)CC(=O)Nc2ccccc2Cl)cc1
tested on / at: at 50 µM (top of the series)
activity change: -14.67
outcome: inactive

Compound: O=C(Nc1ccn(Cc2ccc(Cl)cc2)n1)c1ccccc1
tested on / at: at 50 µM (top of the series)
activity change: 0.628
outcome: inactive

Compound: O=C(O)CNC(=O)C(c1ccccc1)c1ccccc1
tested on / at: at 50 µM (top of the series)
activity change: 27.22
outcome: inconclusive

Compound: CC(C)C[C@@H](CSc1ccccc1)N1CCN(CC(C)C)CCC1=O
tested on / at: at 50 µM (top of the series)
activity change: -6.778
outcome: inconclusive

Compound: O=C(c1cccc(F)c1)N1CCN(c2ccc([N+](=O)[O-])c3cccnc23)CC1
tested on / at: at 50 µM (top of the series)
activity change: 1.042
outcome: inactive

Compound: O=C(Nc1ncccn1)c1ccc([N+](=O)[O-])o1
tested on / at: at 50 µM (top of the series)
activity change: 42.55
outcome: inconclusive

Compound: Nc1ccccc1C#CC(=O)c1ccccc1
tested on / at: at 50 µM (top of the series)
activity change: -11.5
outcome: inconclusive

Compound: O=C(N[C@H]1CC1c1ccccc1)c1ccc([N+](=O)[O-])cc1 (some centres unmarked)
tested on / at: at 50 µM (top of the series)
activity change: 10.56
outcome: inconclusive

Compound: COc1cccc(NC(=O)C2CCC(CNS(=O)(=O)c3cccs3)CC2)c1 (centres unmarked)
tested on / at: at 50 µM (top of the series)
activity change: -8.097
outcome: inconclusive

Compound: CCOc1ccc(NS(=O)(=O)c2ccc(C(=O)N3CCN(c4ncccn4)CC3)cc2)cc1
tested on / at: at 50 µM (top of the series)
activity change: -11.74
outcome: inconclusive

Compound: CC(C)C[C@H]1COc2cc(Br)ccc2S(=O)(=O)N1
tested on / at: at 50 µM (top of the series)
activity change: -0.301
outcome: inconclusive

Compound: Cc1nc(C)c(-c2ccn(S(=O)(=O)c3ccc(Cl)cc3)n2)o1
tested on / at: at 50 µM (top of the series)
activity change: 10.57
outcome: inconclusive

Compound: CN(C(=O)COC(=O)CSc1ccc(C(N)=O)cc1[N+](=O)[O-])C1CCCCC1
tested on / at: at 50 µM (top of the series)
activity change: 29.04
outcome: inconclusive

Compound: C[C@@H]1CCCCO[C@H](CN(C)C(=O)CCCN(C)C)[C@H](C)CN([C@@H](C)CO)C(=O)c2cc(NC(=O)Nc3cccc4ccccc34)ccc2O1
tested on / at: at 50 µM (top of the series)
activity change: -52.89
outcome: inconclusive

Compound: CNC(=O)c1cc(C(=O)c2ccc(C(F)(F)F)cc2F)c[nH]1
tested on / at: at 50 µM (top of the series)
activity change: 17.11
outcome: inconclusive

Compound: COC(=O)c1ccsc1NC(=O)c1cccc(OC)c1
tested on / at: at 50 µM (top of the series)
activity change: 17.46
outcome: inconclusive

Compound: CCOC(=O)c1sc(Nc2cccc(Cl)c2)nc1C
tested on / at: at 50 µM (top of the series)
activity change: 28.44
outcome: inconclusive

Compound: OC(COc1ccc(Cl)cc1)CN1CCN(c2ccccn2)CC1 (centres unmarked)
tested on / at: at 50 µM (top of the series)
activity change: 5.807
outcome: inconclusive

Compound: CC(C)(C)c1ccc2c(c1)C(c1ccc3c(c1)OCO3)CC(=O)O2 (centres unmarked)
tested on / at: at 50 µM (top of the series)
activity change: 13.64
outcome: inconclusive

Compound: O=C1OCCC1Sc1nc2ccccc2c(=O)n1Cc1ccccc1 (centres unmarked)
tested on / at: at 50 µM (top of the series)
activity change: 15.01
outcome: inconclusive

Compound: c1ccc(-c2nc3c4ccccc4ccn3c2CN2CCOCC2)cc1
tested on / at: at 50 µM (top of the series)
activity change: -5.782
outcome: inconclusive

Compound: O=S(=O)(NC1CC1)c1ccc(S(=O)(=O)N2CCc3ccccc32)cc1
tested on / at: at 50 µM (top of the series)
activity change: -28.01
outcome: inconclusive

Compound: CN(C)C(CNS(=O)(=O)c1cc([N+](=O)[O-])ccc1Cl)c1ccco1 (centres unmarked)
tested on / at: at 50 µM (top of the series)
activity change: 15.34
outcome: inconclusive

Compound: Cc1cc(C(=O)Nc2ccc3ccccc3c2)c(C)o1
tested on / at: at 50 µM (top of the series)
activity change: -44.16
outcome: inconclusive

Compound: O=C(O)c1ccc(Oc2ccc([N+](=O)[O-])cc2)c([N+](=O)[O-])c1
tested on / at: at 50 µM (top of the series)
activity change: 37.77
outcome: inconclusive

Compound: Cc1onc(-c2ccccc2)c1-c1nnc(-c2ccccc2C(F)(F)F)o1
tested on / at: at 50 µM (top of the series)
activity change: -8.454
outcome: inconclusive

Compound: CC(=O)c1cccc(NC(=O)COC(=O)C2CCCN2C(=O)c2cccs2)c1 (centres unmarked)
tested on / at: at 50 µM (top of the series)
activity change: -1.447
outcome: inconclusive

Compound: CCN(CC)CCN(C(=O)c1ccc2c(c1)CCCC2)c1nc2ccc(F)cc2s1
tested on / at: at 50 µM (top of the series)
activity change: -21.16
outcome: inconclusive

The first 3 entries again:

Compound,tested on / at,activity change,outcome
O=C(Nc1ccc2c(c1)OCO2)c1ccc([N+](=O)[O-])cc1[N+](=O)[O-],at 50 µM (top of the series),21.61,inconclusive
CN1CCC(c2c[nH]c3ccccc23)C1 (centres unmarked),at 50 µM (top of the series),29.43,inconclusive
COc1ccc(OC)c(C(=O)COC(=O)c2ccc([N+](=O)[O-])o2)c1,at 50 µM (top of the series),15.7,inconclusive

From PubChem BioAssay record AID977624 (Broad Institute, 2014).